Reference: patent US20110293599A1
Results are given in words; binding and its absence hold for the method and conditions named. In cells and extracts the contact can be indirect. Some entries that bind do so weakly or less than the wild type. One block for each substance: values may come before it.

By UniProt entry, the sequences of proteins in these tests, tags left out. Where a name states a change or a piece, a line headed by the entry shows the natural chain unless it says otherwise.
UniProt Q9EPK5: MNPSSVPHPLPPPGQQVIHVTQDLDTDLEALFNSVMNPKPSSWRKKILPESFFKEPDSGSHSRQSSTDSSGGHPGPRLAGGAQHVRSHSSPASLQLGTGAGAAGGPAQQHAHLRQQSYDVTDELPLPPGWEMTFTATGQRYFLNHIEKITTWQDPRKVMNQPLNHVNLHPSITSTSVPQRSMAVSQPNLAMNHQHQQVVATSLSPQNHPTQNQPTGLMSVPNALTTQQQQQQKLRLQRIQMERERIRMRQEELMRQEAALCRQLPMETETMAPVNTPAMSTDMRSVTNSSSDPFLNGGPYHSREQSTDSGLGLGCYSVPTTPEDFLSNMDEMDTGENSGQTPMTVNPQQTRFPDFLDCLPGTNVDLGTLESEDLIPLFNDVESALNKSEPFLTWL
UniProt P10085: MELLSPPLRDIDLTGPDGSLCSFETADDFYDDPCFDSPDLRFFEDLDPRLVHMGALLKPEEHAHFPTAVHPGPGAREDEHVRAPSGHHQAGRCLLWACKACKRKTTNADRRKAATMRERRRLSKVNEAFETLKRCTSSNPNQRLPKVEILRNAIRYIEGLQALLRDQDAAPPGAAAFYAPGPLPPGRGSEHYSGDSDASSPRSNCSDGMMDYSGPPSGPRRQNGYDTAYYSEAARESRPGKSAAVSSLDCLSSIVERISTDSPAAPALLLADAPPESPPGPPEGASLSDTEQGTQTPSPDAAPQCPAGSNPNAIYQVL

Experiments:
[1] = molecular target: Flag-tagged TAZ (transcriptional coactivator with PDZ-binding motif), full length (1-395 aa) (Mus musculus (Mouse)) (UniProt Q9EPK5); experiment: co-immunoprecipitation from 293T cells, Flag-M2 beads, immunoblot
[2] = molecular target: Myc-tagged MyoD, full length 318 aa (FL) (UniProt P10085); experiment: co-immunoprecipitation from 293T cells, Flag-M2 beads, MyoD immunoblot
[3] = molecular target: Myc-tagged MyoD, full length 318 aa (FL) (UniProt P10085); experiment: co-immunoprecipitation from 293T cells, Flag-M2 beads, MyoD immunoblot (legend of FIG. 4)
[4] = molecular target: endogenous MyoD protein of C2C12 cells (mouse) (UniProt P10085); experiment: co-immunoprecipitation from differentiating C2C12 cells stably expressing Flag-TAZ, anti-MyoD immunoblot
[5] = molecular target: Myc-tagged MyoD, full length 318 aa (FL) (UniProt P10085); experiment: co-immunoprecipitation from 293T cells, Flag-M2 beads, anti-Flag and anti-MyoD immunoblot

- binding [1]: binds
Substance: CT MyoD (aa 162-318), Myc-tagged (from UniProt P10085 162-318)

- binding [2]: binds
- binding [3]: binds
- binding [4]: binds
Substance: Flag-tagged TAZ (transcriptional coactivator with PDZ-binding motif), full length (1-395 aa) (from UniProt Q9EPK5 1-395)

- binding [5]: binds
Substance: NT TAZ (aa 1-163) (from UniProt Q9EPK5 1-163)

- binding [2]: binds
Substance: TAZ truncation ΔN1 (aa 124-395 TAZ) (from UniProt Q9EPK5 124-395)
